Laboratory results reported in PubChem BioAssay AID1347426 (Functional Genomics Laboratory (NCATS/FGL), 2020).
The whole screen tested about 31,000 sequences, of which about 1,400 (4.5%) were called active.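 How the source made its calls: active means median seed-adjusted z-score above 1 or below -1; inactive means the rest.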 Some of the results follow.

Test: Novel Modifiers of Survival Motor Neuron (SMN) Protein: Gene Identification via Genome-wide siRNA Screen;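 further: luminescence tracks full-length SMN protein made from the SMN2 reporter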
Settings: HEK293T SMN2-luciferase reporter, siRNA knockdown, 72 h; actives lie on both sides
In short: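 Luciferase signal, proportional to full-length SMN made from an SMN2 cDNA reporter in stable HEK293T cells, was read 72 h after siRNA reverse transfection. Values were expressed as MAD scores after non-targeting-control normalization and log10 conversion; seed analysis flagged off-targets.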

| Sequence | median seed-adjusted z-score |
| --- | --- |
| GGAUUAUAUUGACAUCAGUTT against DLST | active: 1.16 |
| GCAAGUCGUGAAACUAUAATT against YEATS4 | inactive: 0.905 |
| ACUUGGACCUGUCCUCCAATT against TSKU | inactive: -0.548 |
| GGCCCUCAGGUAAUGCUAATT against TTF2 | inactive: 0.282 |
| GCGAUGUUCUCAUUCCGGATT against ACADL | inactive: 0.223 |
| GAGGAUAUCUUGGUCAGAATT against CYB5R2 | inactive: -0.403 |
| GCACUGUCUACAUCCCUGATT against RHCG | inactive: 0.375 |
| GCAAGACUUUUGGUCGAAATT against ZNF816A | inactive: 0.39 |
| GAUCGAUUACAGUAGGUGATT against ESSPL | inactive: 0.328 |
| GAAGCGGCAUUAGCAGAGATT against ISOC1 | inactive: 0.104 |
| GACACUCUCUAAUCGAAUUTT against SENP5 | inactive: 0.215 |
| GCUUCGUCAUCGACAACAATT against CACNA2D4 | inactive: -0.0464 |
| UCAAUACUCUGAUCCUCAATT against AIPL1 | inactive: -0.259 |
| GAUAAAAGGAUGGAUGAAATT against PRPF6 | active: -1.06 |
| CAUCUACACGCAGAAAUCATT against MS4A6A | inactive: 0.174 |
| GGGUGGACGUGGAUACUUATT against NFE2L1 | inactive: 0.689 |
| GCACUGAUGUAAAUUACUUTT against RAB6C | active: -1.08 |
| CCAUAUAAGUUUACGUUUATT against TM9SF2 | active: 1.09 |
| CAUGGGAGAUUGUCCUGUATT against CD163 | inactive: 0.021 |
| CUUACUCCCUUCAAACGAATT against GPR64 | inactive: 0.527 |
| GGAACCUACCUGACUAAGATT against ARL9 | inactive: 0.98 |
| GCAGAUAUUUCAUUCAAAUTT against ZNF620 | inactive: 0.172 |
| GUGACAAACCGAUACCUGUTT against COPE | inactive: 0.499 |

| Sequence | median seed-adjusted z-score |
| --- | --- |
| UCUACUAUCUGAACAAGAATT against EGLN3 | inactive: -0.0575 |
| CGGUAGAUGGCAAGACCAUTT against RABL2A | inactive: 0.794 |
| GGAUCUCAGUUUCUUAUCATT against PPIL4 | inactive: 0.00225 |
| GGCAACGACUCUUACCGAATT against MBD4 | inactive: -0.107 |
| GGUCAACUCUCUACUGAUATT against ARHGAP29 | inactive: -0.0483 |
| GGAAUUGUUUAGGACUAAATT against ZNF749 | inactive: 0.911 |
| AAGAAUUUGCAUUACCUUATT against GTPBP8 | inactive: 0.834 |
| GGAUAUCAGCGAAAGGCAATT against GPR21 | inactive: 0.246 |
| GGUGACGGCAGUGACCAAATT against GPR135 | inactive: 0.546 |
| AGGAGUCCCUAAUGCUACATT against TRIM74 | inactive: 0.0932 |
| GGACUGUCUUCAUGCGCUUTT against ENG | inactive: -0.254 |
| GCAGUUGUCCAGUUACGAATT against RAD50 | inactive: 0.266 |
| CCACCAAUGCAUGUGAAAATT against KRT33B | inactive: 0.04 |
| GCAGAUCAAUUUUCGGCUUTT against GLDC | inactive: 0 |
| GGUACUAUUUCCUAAGUGATT against HOOK2 | inactive: 0.0914 |
| GAAUGGUCGUGGAUUCACATT against MAPKAPK5 | inactive: 0.489 |
| GCUUGUGCCUUGUCCCAAATT against PRKCDBP | inactive: 0.244 |
| CCACAUCAGCAGUACUACATT against TBX15 | inactive: 0.265 |
| CAAACGAGCAAGUCAGUUUTT against ARHGAP10 | inactive: -0.458 |
| GCAUCUACGAGUUCAUCAUTT against FOXG1 | inactive: 0.749 |
| GAAACUCGACGGUCCUCAATT against SERTAD2 | inactive: 0.43 |
| CCUCAGAACCGGCAAGAAATT against TNFAIP1 | inactive: 0.0766 |
| GCAUAAAGCUCCAAGUGAATT against PLUNC | inactive: 0.254 |

Part of the list above, as tab-separated lines:
Sequence	median seed-adjusted z-score
GAAUGGUCGUGGAUUCACATT against MAPKAPK5	inactive: 0.489
GCUUGUGCCUUGUCCCAAATT against PRKCDBP	inactive: 0.244
CCACAUCAGCAGUACUACATT against TBX15	inactive: 0.265
CAAACGAGCAAGUCAGUUUTT against ARHGAP10	inactive: -0.458
GCAUCUACGAGUUCAUCAUTT against FOXG1	inactive: 0.749
GAAACUCGACGGUCCUCAATT against SERTAD2	inactive: 0.43

Next results follow.

| Sequence | median seed-adjusted z-score |
| --- | --- |
| CAACAUUGGUGGGAAUGCATT against EIF2B2 | inactive: -0.325 |
| UGAUCAUUGUCCCUACAGATT against SERPINA3 | inactive: 0.125 |
| GAGGAGAUCGCGUUCCUUATT against DES | inactive: 0 |
| GGCAUUAAUUCAUGGACUATT against PSMD14 | inactive: 0.375 |
| CCAACACCCUCUCUCGAUATT against PLIN | inactive: 0.166 |
| GAAUCAACAUCUCCCGAGATT against TAC3 | inactive: -0.00265 |
| ACAAAUACAUGGAGAUCCATT against MGAT5B | inactive: 0 |
| GGUCAACCGUUACUAUGGATT against ITPR1 | inactive: -0.0888 |
| CCAGCUAUGAGAAAUCAGATT against FCER1G | inactive: 0.136 |
| GUAUUGAUGUCACCACAGATT against MFN2 | inactive: -0.0968 |
| CCUGGAGAACUAUAUCUCATT against PXN | inactive: -0.69 |
| GAACUGGACCGAUUGCUGUTT against PLEKHM2 | inactive: 0.593 |
| GCCUUUUCGUUAACCGCUUTT against SLC2A1 | inactive: -0.349 |
| GCAAAGUCAUGGAGGAAAATT against OSBPL7 | inactive: 0 |
| GGCGCGACCUUCGAAUGUATT against RNF5 | inactive: -0.0342 |
| CAUCAGCUGGUGAUCGAUATT against PPP1R12A | inactive: -0.103 |
| GUGUGAUUGUCGCUCGAAATT against SLC24A1 | inactive: 0.372 |
| AGGUGAAGGACUUAACUAATT against RAB11FIP3 | inactive: 0.0361 |
| AGGAAAUGUUUCGAAGGAATT against SSX3 | inactive: 0 |
| CCACCAUAGGUUAUGGGCATT against KCNK9 | inactive: 0.735 |
| CGGUGACUGUGAACGGCAATT against DNAJB8 | active: -1.09 |
| CAACAAAAGGAGCACACGATT against IFI35 | inactive: 0.105 |
| CAAAUACUCUAGGUUGAUATT against GABRR2 | inactive: 0 |
